# Like-named read-outs stand apart in the source and are kept apart here. Part of at least one peptide drawing is inferred or uncertain, most often the ends. Ends that are not written are not given here.
# What was measured:
# Assay type in all cases: cell-based
# Pseudomonas aeruginosa [1] = conditions: clinical isolate, 37° C. for one hour, minus peptide control 100,000
# Method: (§1) In this test, antibiotic resistant clinical isolates of Pseudomonas aeruginosa and Staphylococcus aureus were obtained. The lytic peptide bioassay was performed as described below.
# (§2) A flask containing 49 ml of nutrient broth was inoculated with 1 ml of an overnight culture of the test bacteria. The culture was allowed to grow to mid-log phase at 37° C. with shaking (approximately 4 hours). When the cells reached the correct density, the cells were transferred to a sterile tube and centrifuged for 10 minutes at 3000 rpm. The pellet was resuspended in 3 ml of phosphate buffer and centrifuged for 10 minutes at 3000 rpm. The pellet was resuspended once again in sufficient (but measured) volume to calculate the absorbance of the suspension at 600 nm. Using the resulting absorbance and a previously constructed growth curve, the required dilution to achieve a concentration of 10^6 cells/ml was determined. […]
# (§3) After the incubation period two 1:10 serial dilutions in phosphate buffer were made for each culture(three 1:10 serial dilutions for the control culture). […] The following day, the number of colonies on the control plates was counted to determine the starting number of cells in the assay tubes. The number of cells surviving the assay in the presence of peptide was also counted.
# Staphylococcus aureus [2] = experiment: In vitro lysis of pathogenic bacteria (lytic peptide bioassay, colony count of survivors); conditions: clinical isolate, 37° C. for one hour, minus peptide control 50,000
# Method: as §1, §2, §3
# Staphylococcus aureus [3] = experiment: Peptide Minimal Inhibitory Concentration (broth dilution); conditions: test concentrations 2-32 μg/ml
# Enterococcus species = experiment: as above; conditions: test concentrations 2-32 μg/ml
# Pseudomonas aeruginosa [4] = experiment: as above; conditions: test concentrations 2-32 μg/ml
# Xanthomonas sp. = experiment: as above; conditions: test concentrations 2-32 μg/ml
sequence,measurement,setting,value
FALALKALKKALKKLKKALKKAL [DP-1],# of Survivors,Pseudomonas aeruginosa [1]; peptide 1 μM,"100,000"
same,# of Survivors,Pseudomonas aeruginosa [1]; peptide 10 μM,"6,607"
same,# of Survivors,Staphylococcus aureus [2]; peptide 1 μM,"50,000"
same,# of Survivors,Staphylococcus aureus [2]; peptide 10 μM,813
same,MIC,Staphylococcus aureus [3]; clinical isolate A,16
same,MIC,Staphylococcus aureus [3]; clinical isolate B,8
same,MIC,Staphylococcus aureus [3]; clinical isolate C,8
same,MIC,Staphylococcus aureus [3]; clinical isolate D,16
same,MIC,Staphylococcus aureus [3]; clinical isolate E,16
same,MIC,Enterococcus species; clinical isolate 1,4
same,MIC,Enterococcus species; clinical isolate 2,8
same,MIC,Enterococcus species; clinical isolate 3,4
same,MIC,Enterococcus species; clinical isolate 4,4
same,MIC,Enterococcus species; clinical isolate 5,16
same,MIC,Pseudomonas aeruginosa [4]; clinical isolate 2,2
same,MIC,Pseudomonas aeruginosa [4]; clinical isolate 15,8
same,MIC,Pseudomonas aeruginosa [4]; clinical isolate 30,4
same,MIC,Pseudomonas aeruginosa [4]; clinical isolate 31,4
same,MIC,Pseudomonas aeruginosa [4]; clinical isolate 32,4
same,MIC,Xanthomonas sp.; clinical isolate 4,4
same,MIC,Xanthomonas sp.; clinical isolate 5,16
same,MIC,Xanthomonas sp.; clinical isolate 6,4
same,MIC,Xanthomonas sp.; clinical isolate 8,>16

# Source: patent publication US6559281B1, “Non-naturally occurring synthetic lytic peptides” (priority 1993, dated 2003)
